Laboratory results reported in publication doi:10.1101/2024.03.01.24303485.
Positions count from the first letter of the chain named. No constants are given. Whether binding was seen depends on the method and setting. For some assays here: In cells and extracts the contact can be indirect. Some entries that bind do so weakly or less than the wild type. Sequences can lack the tags named with a protein.

Protein sequences, listed by entry. Tags and fused reporters are not part of them. Lines headed by an entry give the natural chain unless they say otherwise; changes in a name come on top.
UniProt Q6P6J0, whole entry: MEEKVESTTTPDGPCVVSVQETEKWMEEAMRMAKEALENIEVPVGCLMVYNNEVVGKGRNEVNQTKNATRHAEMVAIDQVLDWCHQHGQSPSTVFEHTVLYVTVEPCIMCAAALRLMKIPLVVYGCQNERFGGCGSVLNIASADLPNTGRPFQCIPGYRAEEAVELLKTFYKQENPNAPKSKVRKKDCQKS

Tests used:
[1] = biological target: T1, mouse ADAT3 A180L, His-tagged (mouse) (UniProt Q6PAT0); assay: pull-down
T1 sequence: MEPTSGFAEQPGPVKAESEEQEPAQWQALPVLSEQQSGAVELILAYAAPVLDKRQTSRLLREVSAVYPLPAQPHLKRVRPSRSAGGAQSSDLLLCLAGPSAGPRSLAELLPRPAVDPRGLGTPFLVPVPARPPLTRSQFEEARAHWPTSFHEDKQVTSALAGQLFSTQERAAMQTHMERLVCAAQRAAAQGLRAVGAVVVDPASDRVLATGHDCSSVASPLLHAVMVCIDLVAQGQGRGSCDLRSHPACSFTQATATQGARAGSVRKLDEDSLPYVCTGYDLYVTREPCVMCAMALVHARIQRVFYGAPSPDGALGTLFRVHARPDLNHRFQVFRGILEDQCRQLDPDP

[2] = biological target: T2, mouse ADAT3 V128M, His-tagged (mouse) (UniProt Q6PAT0); assay: pull-down
T2 sequence: T1 sequence with V128M, L180A

[3] = biological target: T3, mouse ADAT3 wild type, His-tagged (pnEA-HT3-mADAT3 WT) (mouse) (UniProt Q6PAT0); assay: pull-down
T3 sequence: T1 sequence with L180A

[4] = biological target: T4, mouse ADAT3 A180V, His-tagged (mouse) (UniProt Q6PAT0); assay: pull-down
T4 sequence: T1 sequence with L180V

[5] = biological target: T5, mouse ADAT3 A180V, tag removed (as crystallised with ADAT2) (mouse) (UniProt Q6PAT0); assay: crystal structure
T5 sequence: T1 sequence with L180V

Measured: binding

mouse ADAT2 wild type, untagged (pnCS-mADAT2 WT) (from UniProt Q6P6J0 1-191) (enzyme)
binds: all assays above
